# Test results as given in PubChem BioAssay AID2685 (National Center for Advancing Translational Sciences (NCATS), 2010).
# Screen size: about 320,000 compounds; about 2,100 (0.66%) were called active. The shares of active, inactive and inconclusive entries below differ from those in the screen. The call rests on the fitted dose curve; in most records, active means well fitted inhibition curve with a large enough effect in the signal ratio, with a control signal flat (not every such curve was filed as active); inconclusive means small, poorly fitted or top-dose-only effect, or effect the other way, or a change in a side signal; inactive means flat fitted curve, though single readings scatter; the % refers to the signal ratio. Where the call is inconclusive, the potency comes from a doubtful curve fit.
# Assay: qHTS Assay for Lipid Storage Modulators in Drosophila S3 Cells
# Conditions: BODIPY lipid droplet fluorescence, 18-24 h, cells fed with added oleic acid; lipid storage change, negative = inhibition: at 46.1 µM (top of the series) unless noted
# Procedure, shortened: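 Drosophila S3 cells got compounds at several concentrations plus oleic acid (400 uM solution). Laser-scanning cytometry with 488 nm excitation read lipid droplets at 500-530 nm and cells at 575-640 nm. Percent activity was relative to 20 uM Triacsin C.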
# On the % scale 0 is the no-effect control and ±100 the full control effect; potency means the concentration at half of the fitted maximal effect.
SMILES,"lipid storage change, negative = inhibition",Potency,outcome
COc1ccc(C(=O)OC(C)CN2CCN(C)CC2)cc1OC (stereo not drawn),inconclusive: -14.6%,–,–
CCOc1ccccc1NC(=O)C(Sc1ccccc1)c1ccccc1 (stereo not drawn),inconclusive: 1.43%,–,–
N#Cc1c2c(c(N3CCN(c4ccccn4)CC3)n3c1nc1ccccc13)CCC2,inconclusive: -36.3%,–,–
Cc1ccc(C)c(N(C(=O)c2ccco2)C(C(=O)NC2CCCC2)c2ccco2)c1 (stereo not drawn),inconclusive: -182%,–,–
COc1ccc(C(C)(C)C)cc1NC(=O)Cn1cnnn1,inconclusive: 47.5%,–,–
Cc1ccc(C(C(=O)NC2CCCC2)N(C(=O)Cc2cccs2)c2ccc(C)c(C)c2)o1 (stereo not drawn),–,"inconclusive: 29.1 µM [rising, single point]",–
CCOc1ccccc1NC(=O)CC1(CC(=O)N2CCOCC2)CCCC1,inconclusive: 3.29%,–,–
COc1ccc(C)cc1NC(=O)C1CCCN(S(=O)(=O)c2cccc3cccnc23)C1 (stereo not drawn),–,–,inactive [at 46.1 µM]
COc1ccc(C)cc1Nc1cc(C)nc2nc(C)nn12,–,"inconclusive: 29.1 µM [rising, single point]",–
O=C(NCCN1C(=O)C2C3C=CC(C3)C2C1=O)Nc1ccc(Br)cc1 (stereo not drawn),inconclusive: 0.966%,–,–
COC(=O)c1ccc(CSc2nnc(-c3c[nH]c4ccccc34)n2-c2ccccc2)cc1,inconclusive: -27.6%,–,–
COc1ccc(-c2nc(CN3CCCCC3c3nccn3C)c(C)o2)c(C)c1C (stereo not drawn),inconclusive: 31%,–,–
COc1ccc(NC(=S)NCCc2ccc(F)cc2)c(OC)c1,–,"inconclusive: 1.16 µM [rising, full curve, poor fit]",–
COC(=O)Cc1c(C)c2ccc(O)c(CNCc3ccc(OC)c(OC)c3)c2oc1=O,inconclusive: 11.6%,–,–
COC(=O)C1=C(C)N=C2SC(C#N)=C(N)N2C1c1ccc(OC)cc1 (stereo not drawn),–,active: 11.6 µM,–
Cn1c(=O)c2sccc2n2c(CCCC(=O)NCc3cccnc3)nnc12,–,"inconclusive: 0.461 µM [falling, single point]",–
O=C(CSc1nccc(=O)[nH]1)Nc1ccc(N2CCOCC2)c(Cl)c1,–,"inconclusive: 0.651 µM [falling, partial curve, poor fit]",–
COc1ccc(C(C)NC(=O)c2ccncc2)cc1 (stereo not drawn),inconclusive: 0.676%,–,–
Cc1ccc(-c2noc(CN(C(=O)CCCCCN3C(=O)c4ccccc4C3=O)C(C)C)n2)cc1,–,"inconclusive: 0.411 µM [activator, partial curve]",–
CC(NS(=O)(=O)c1ccc2c(c1)C(=O)c1cc(S(=O)(=O)NC(C)C(=O)O)ccc1-2)C(=O)O (stereo not drawn),–,"inconclusive: 6.51 µM [activator, single point]",–
O=C(O)CC(CC(=O)Nc1ccccc1C(=O)O)c1ccccc1 (stereo not drawn),–,"inconclusive: 16.4 µM [falling, single point]",–
CCOc1ccc(NCc2nnc(SCC(=O)Nc3nc(-c4ccccc4)cs3)n2-c2ccccc2)cc1,inconclusive: -20%,–,–
CCCN(C(=O)c1ccc([N+](=O)[O-])c(C)c1)c1c(N)n(Cc2ccccc2)c(=O)[nH]c1=O,inactive: -11%,–,–
O=c1[nH]c(CN2CCN(S(=O)(=O)c3ccc4c(c3)OCCO4)CC2)nc2sc3c(c12)CCCC3,inconclusive: 17.5%,–,–
CC(C)C[C@H](NC(=O)NCc1ccccc1Cl)C(=O)O,inconclusive: -20%,–,–

# Five of these compounds, reformatted.
SMILES	lipid storage change, negative = inhibition	Potency	outcome
Cc1ccc(C(C(=O)NC2CCCC2)N(C(=O)Cc2cccs2)c2ccc(C)c(C)c2)o1 (stereo not drawn)	–	inconclusive: 29.1 µM [rising, single point]	–
O=C(NCCN1C(=O)C2C3C=CC(C3)C2C1=O)Nc1ccc(Br)cc1 (stereo not drawn)	inconclusive: 0.966%	–	–
COc1ccc(-c2nc(CN3CCCCC3c3nccn3C)c(C)o2)c(C)c1C (stereo not drawn)	inconclusive: 31%	–	–
COC(=O)C1=C(C)N=C2SC(C#N)=C(N)N2C1c1ccc(OC)cc1 (stereo not drawn)	–	active: 11.6 µM	–
Cn1c(=O)c2sccc2n2c(CCCC(=O)NCc3cccnc3)nnc12	–	inconclusive: 0.461 µM [falling, single point]	–

# (further entries)

SMILES,"lipid storage change, negative = inhibition",Potency,outcome
CN1CCC(N(C)C(=O)c2cc(-c3ccccc3Cl)nc3ccccc23)CC1,inconclusive: -0.355%,–,–
CN(CC(=O)Nc1ccc(N2CCOCC2)cc1)C(=O)c1cccc(Cl)c1Cl,inconclusive: -47.3% [at 0.0737 µM],–,–
COc1ccc(/C=C/C(=O)NCCc2nc3ccccc3[nH]2)cc1,inactive: -0.312%,–,–
Cc1ccc(CN2CCN(/N=C/c3ccc(N(C)C)cc3)CC2)cc1,–,"inconclusive: 3.26 µM [falling, full curve, poor fit]",–
CC(C)(C)n1nc2c(c1NC(=O)CCCc1ccccc1)CS(=O)C2 (stereo not drawn),–,"inconclusive: 1.64 µM [activator, full curve, poor fit]",–
COc1cc(NC(=O)CSc2nc3ccccc3c(=O)n2C)ccc1NC(=O)c1ccco1,inconclusive: 24%,–,–
Cc1cc(C)c(C(=O)CSc2nnc(C)s2)c(C)c1,inconclusive: -12%,–,–
Nc1ccc(-c2nc3c(Cl)cc(N)cc3[nH]2)cc1,inconclusive: 32.3%,–,–
CC(C)Cc1ccc(/C=C/C(=O)N2CCCCC2)cc1,inconclusive: 12.6%,–,–
Cc1cc(OCC(=O)NCCc2c[nH]c3ccccc23)c2c(C)cc(=O)oc2c1,–,"inconclusive: 0.13 µM [falling, full curve, poor fit]",–
C/C(=N\Nc1ccc(C(=O)c2c(C)cc3ccccn23)cc1[N+](=O)[O-])c1ccc(O)cc1,inconclusive: 2.72%,–,–
O=C(O)C1CCN(C(=O)COc2ccc3c4c(c(=O)oc3c2)CCCC4)CC1,inconclusive: 31.4% [activator],–,–
COCCN=c1scc(-c2cc(OC)c(OC)c(OC)c2)n1/N=C/c1c(C)[nH]c2ccccc12,–,"inconclusive: 23.1 µM [falling, single point]",–
O=C(COc1ccccc1[N+](=O)[O-])N1CCCc2ccccc21,–,"inconclusive: 23.1 µM [activator, single point]",–
CCOC(=O)C1CCN(C(=O)c2cn(CCOC)c(=O)c3c2c2ccccc2n3C)CC1,–,"inconclusive: 10.3 µM [activator, partial curve, poor fit]",–
O=C1CCC([N+](=O)[O-])C(c2cc(Br)ccc2F)N1 (stereo not drawn),inconclusive: 9.08%,–,–
COc1ccc2c(c1)CCC1C2=NN(/C(C)=C\C(C)=O)C1c1ccc(F)cc1 (stereo not drawn),–,"inconclusive: 0.731 µM [falling, full curve]",–
NCCCCC(N)c1cn([C@@H](CCC(=O)O)C(=O)N2CCNCC2)nn1 (stereo partly drawn),–,"inconclusive: 7.31 µM [activator, partial curve]",–
Cc1cc(C(=O)CSc2nnc(-c3cccs3)o2)c(C)n1-c1ccccc1,–,"inconclusive: 6.51 µM [rising, single point]",–
C=CCn1c(SCc2nc3sc4c(c3c(=O)[nH]2)CCCC4)nc2ccccc2c1=O,inconclusive: 8.22%,–,–
CC1(c2ccccc2)NC(=O)N(CC(=O)Nc2cccc(/C=C/c3ccccn3)c2)C1=O (stereo not drawn),inconclusive,–,–
Nc1c(C(=O)OCC(=O)Nc2ccc(OC(F)F)cc2)[nH]c(=O)[nH]c1=O,inconclusive: 27.5%,–,–
Cc1cc(C)n(CCCC(=O)O)n1,inconclusive: -3.73%,–,–
COc1ccc(-c2cc(-c3ccccc3)nc(=O)[nH]2)cc1,inconclusive: -6.34%,–,–
O=C(COc1cccc2ccccc12)Nc1ccc(Cl)cc1C(=O)O,–,"inconclusive: 4.11 µM [activator, single point]",–

SMILES,"lipid storage change, negative = inhibition",Potency,outcome
COC1(OC)C(=N/O)/C(=N\O)CCC1O (stereo not drawn),–,"inconclusive: 29.1 µM [rising, partial curve, poor fit]",–
O=C(NCc1cccnc1)c1ccc(NS(=O)(=O)c2ccc(F)cc2)cc1,inconclusive: -33.3%,–,–
O=C(COC(=O)[C@@H]1CCCN1C(=O)c1cccs1)Nc1ccc(F)cc1[N+](=O)[O-],inconclusive: -17.8%,–,–
Cc1cccc(N2C(=O)c3ccc(Br)cc3C2=O)n1,–,"inconclusive: 29.1 µM [falling, single point]",–
O=c1c(Cc2ccc(F)cc2)c(O)ccn1Cc1ccc(Cl)cc1Cl,–,"inconclusive: 6.51 µM [falling, single point]",–
CC(=O)Nc1ccc(NC(=O)C(C)OC(=O)/C(C#N)=C/c2ccc(N(C)C)cc2)cc1 (stereo not drawn),–,"inconclusive: 29.1 µM [cytotoxic, single point]",–
CCN1CCN(S(=O)(=O)c2ccc(Cl)c(C(=O)N(C)Cc3ccc(F)cc3)c2)CC1,inconclusive,–,–
NC(=O)C1CCN(C(=O)c2cccc(S(=O)(=O)N3CCc4ccccc4C3)c2)CC1,–,"inconclusive: 3.26 µM [activator, partial curve]",–
Cc1ccc(N2CC(C(=O)N3CCCCC3)CC2=O)cc1C (stereo not drawn),–,"inconclusive: 1.03 µM [falling, partial curve]",–
C=CCNC(=S)N/N=C/c1cccc([N+](=O)[O-])c1,inconclusive: 9.51%,–,–
Cc1ccccc1-c1nc(CN2CCC(C(=O)NCc3cccs3)CC2)c(C)o1,inconclusive: 21.3%,–,–
Cc1nc2ccc(NC(=O)CS(=O)(=O)c3ccccc3)cc2s1,inconclusive,–,–
O=C(NCCCO)/C(=C\C=C\c1ccccc1)NC(=O)c1ccccc1Cl,inconclusive: 6.99%,–,–
CCCN(CC1CC1)S(=O)(=O)c1ccc(S(N)(=O)=O)cc1,inconclusive: 2.96%,–,–
O=C(CN1C(=O)c2ccccc2C1=O)Oc1ccc(F)cc1,inconclusive: 65%,–,–
Cc1nn(Cc2ccc(Cl)c(Cl)c2)c(C)c1NC(=O)c1cc(-c2ccco2)on1,–,"inconclusive: 18.4 µM [falling, single point]",–
Cc1ccc(S(=O)(=O)N2CCCCC2)cc1C(=O)Nc1ncn[nH]1,inconclusive: -35.6%,–,–
CN(CC(=O)N1CCN(Cc2ccccc2)CC1)S(=O)(=O)c1ccc(F)cc1,inconclusive: 4.95%,–,–
Fc1ccc(CSc2ncnc3c2oc2ccccc23)cc1,inconclusive: 28.1%,–,–
CC1CCN(CCCNC(=O)c2ccc3c(=O)n(CCc4ccccc4)c(=O)[nH]c3c2)CC1,inconclusive: -186%,–,–
COc1ccc(CSc2nnc3n(C)c(=O)c4c5c(sc4n23)CCCC5)cc1,inconclusive: 47%,–,–
CN(C)C(CNC(=O)CN1C(=O)NC2(CCc3ccccc32)C1=O)c1ccco1 (stereo not drawn),inactive: 13%,–,–
CC(C)CC(NC(=O)C1CCCCC1)C(=O)N1CCN(c2ccccn2)CC1 (stereo not drawn),–,"inconclusive: 20.6 µM [activator, partial curve]",–
